Assay results: patent US20070185028A1, “Compositions and methods for treatment of protein misfolding and protein aggregation diseases” (priority 2004, published 2007)
These are yes or no findings as the source states them, for the method shown. Some entries that bind do so weakly or less than the wild type.

The chains behind the UniProt entries cited, without tags or fusion partners. Residues count along the entry.
UniProt P00327, residues 2-375: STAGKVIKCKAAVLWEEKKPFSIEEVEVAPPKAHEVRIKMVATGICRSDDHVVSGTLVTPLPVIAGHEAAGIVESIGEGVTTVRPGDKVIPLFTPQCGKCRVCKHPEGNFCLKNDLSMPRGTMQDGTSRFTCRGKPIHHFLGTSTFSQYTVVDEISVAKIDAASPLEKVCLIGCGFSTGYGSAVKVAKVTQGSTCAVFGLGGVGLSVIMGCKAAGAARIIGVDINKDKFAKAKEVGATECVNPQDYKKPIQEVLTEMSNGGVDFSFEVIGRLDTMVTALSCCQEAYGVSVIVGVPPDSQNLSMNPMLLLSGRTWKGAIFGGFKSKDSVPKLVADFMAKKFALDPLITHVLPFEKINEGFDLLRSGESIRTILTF
UniProt P05067, residues 672-713: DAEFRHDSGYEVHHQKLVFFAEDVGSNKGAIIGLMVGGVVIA

target: Equine Alcohol dehydrogenase (equine) (UniProt P00327); assay: protein pin array

binding, binds:
FSVNLDVK
LTITSSLS
GVLTVNGP

target: beta amyloid (UniProt P05067); assay: protein pin array ELISA, A450

binding, binds:
FYLRPPSF
RLEKDRFS
FSVNLDVK
SFLRAPSW
LTITSSLS
GVLTVNGP
RTIPITRE
LKVKVLGD
KHEERQDE
HGFISREF
FISREFHR
KYRIPADV
WIRRPFFP
LTVNGPRK
PFFPFHSP
FPFHSPSR
FHSPSRLF
LFPTSTSL
SLSPFYLR
DQFFGEHL
SPFYLRPP

target: Equine Alcohol dehydrogenase (equine) (UniProt P00327); assay: protein pin array ELISA, A450, ADH as the ligand

binding, binds:
RLEKDRFS
FSVNLDVK
SREFHRKY
LTITSSLS
GVLTVNGP
RTIPITRE
WIRRPFFP
PFFPFHSP
FFGEHLLE
LFPTSTSL
SLSPFYLR
LRPPSFLR

target: Equine Alcohol dehydrogenase (equine) (UniProt P00327); assay: protein pin array ELISA, A450; listed as peak peptide with unheated and pre-heated target

binding, binds:
RLEKDRFS
FSVNLDVK
SREFHRKY
LTITSSLS
GVLTVNGP
RTIPITRE
WIRRPFFP
PFFPFHSP
FFGEHLLE
LFPTSTSL
SLSPFYLR
LRPPSFLR
